Laboratory results reported in patent publication US20250388687A1.
Where a chain is given by its changes, count along the chain named. These are yes or no findings as the source states them, for the method shown. Some binding calls cover weakened binding; strength is not graded here.

Sequences of proteins named here, by UniProt entry; tags and fusion partners are left off. Residues count along the entry.
UniProt P32927, residues 17-443: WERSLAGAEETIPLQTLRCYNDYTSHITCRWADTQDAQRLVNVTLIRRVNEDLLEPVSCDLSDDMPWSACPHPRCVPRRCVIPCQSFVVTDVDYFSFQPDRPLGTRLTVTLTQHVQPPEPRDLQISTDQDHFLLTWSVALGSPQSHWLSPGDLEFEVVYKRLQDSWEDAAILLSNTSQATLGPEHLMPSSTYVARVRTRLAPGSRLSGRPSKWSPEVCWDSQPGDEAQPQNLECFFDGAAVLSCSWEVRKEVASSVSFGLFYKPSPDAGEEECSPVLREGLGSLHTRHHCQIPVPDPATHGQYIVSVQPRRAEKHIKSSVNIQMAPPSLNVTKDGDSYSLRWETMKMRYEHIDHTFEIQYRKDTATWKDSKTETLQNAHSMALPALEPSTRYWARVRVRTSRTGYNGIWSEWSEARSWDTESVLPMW

B1: EPOR/CD131 binder clonotype 247 (antibody, V domains shown)
VH: EVQLVESGGGLVQPGGSLRLSCAASGFTFSSYDMHWVRQATGKGLEWVSAIGTAGDTYYPGSVKGRFTISRENAKNSLYLQMNSLRAGDTAVYYCARGDHSYGGLDYWGQGTLVTVSS
VL: SYELTQPPSVSVSLGQMARITCSGEALPKKYAYWYQQKPGQFPVLVIYKDSERPSGIPERFSGSSSGTIVTLTISGVQAEDEADYYCLSADSSGTYRVFGGGTKLTVL
B2: EPOR/CD131 binder clonotype 249 (antibody, V domains shown)
VH: QVQLVQSGAEVEKPGASVKVSCKASGYTFTSYDIYWVRQATGQGLEWMGWMIPNSGNTGYAQRFEDRVTMTRSTSMNTAYMELNSLRSEDTAVYYCARGDWAWSFDLWGRGTLVTVSS
VL: QSALTQPASVSGSPGQSITISCTGTSSDVGGYNYVSWYQQHPGKAPKLMIYEVSHRPSGVSNRFSGSKSGNTASLTISGLQAEDESDYYCSSYTSSSSLVFGGGTKLTVL
B3: EPOR/CD131 binder clonotype 250 (antibody, V domains shown)
VH: QVQLVQSGAEVKKPGASVKVSCKASGYTFTSYYMHWVRQAPGQGLEWMGIINPSGGSTSYAQKFQGRVTMTRDTSTSTVYMELSSLRSEDTAVYYCARGLRRDWFDPWGQGTLVTVSS
VL: B2 VL with H55N, S86A, S98T, L99W
B4: EPOR/CD131 binder clonotype 252 (antibody, V domains shown)
VH: QVQLVESGGGVVQPGRSLRLSCAASGFTFSNYGMHWVRQAPGKGLDWVAVIWYDGNNEYYADSVKDRFTISRDNSQNTLYLQMNSLRAEDRAVYYCVRGGVGDGFDMWGQGTMVTVSS
VL: B2 VL with A45V, H55N, S86A, S91I, S95N, S96T, S97N, S98T, L99R
B5: EPOR/CD131 binder clonotype 255 (antibody, V domains shown)
VH: EVQLVESGGGLVKPGGSLRLSCAASGFTFSSYSMNWVRQAPGKGLEWVSSISSSSSYIYYADSVKGRFTISRDNAKNSLYLQMNSLRAEDTAVYYCARDSAYYTFDYWGQGTLVTVSS
VL: QSALTQPPSASGSPGQSVTISCTGTSSDVGGYNYVSWYQQHPGKAPKLMIYEVSKRPSGVPDRFSGSKSGNTASLTVSGLQAEDEADYYCSSYAGSNNFWVFGGGTKLTVL
B6: EPOR/CD131 binder clonotype 260 (antibody, V domains shown)
VH: EVQLVESGGGVVRPGGSLRLSCAASGFPFDDFGLNWVRQAPGKGLEWVSGINWNGGTTTYADSVKGRFTISRDNAKKSLYLQMSSLRVEDTALFYCVRDEIWNYYFDYWGQGTLVTVSS
VL: SYELTQPSSVSVSPGQTARITCSGDVLAKKYARWFQQKPGQAPVLVIYKDSERPSGIPERFSGSSSGTTVTLTISGAQVEDEADYYCYSAADNNRVFGGGTKLTVL
B7: EPOR/CD131 binder clonotype 264 (antibody, V domains shown)
VH: EVQLVESGGGLVQPGGSLRLSCAASGFTFSSYWMHWVRQAPGKGLVWVSRINSDGSSTSYADSVKGRFTISRDNAKNTLYLQMNSLRAEDTAVYYCARVGWGGHAFDIWGQGTMVTVSS
VL: SSELTQDPAVSVALGQTVRITCQGDSLRSYYASWYQQKPGQAPVLVIYGKNNRPSGIPDRFSGSSSGNTASLTITGAQAEDEADYYCNSRDSSGNHVVFGGGTKLTVL
B8: EPOR/CD131 binder clonotype 265 (antibody, V domains shown)
VH: EVQLVESGGGLVKPGGSLRLSCAASGFTFSTYSMNWVRQAPGKGLEWVSSISSSSTYIYYADSVKGRFTISRDNAKNSLYLQMNSLRAEDTAVYYCARGYNWNYVGDYWGQGTLVTVSS
VL: B2 VL with H55N, S86A, S98T
B9: EPOR/CD131 binder clonotype 272 (antibody, V domains shown)
VH: EVQLVESGGGLVQPGGSLRLSCAASGFTFNRYNMNWVRQAPGKGLEWVSYISSSSDTIYYADSVKGRFTISRDNAKNSLYLQMNSLRDEDTAMYYCARECYSSSWAFDYWGQGTLVTVSS
VL: SSELTQDPAVSVALGQTVRITCQGDSLRSYYASWYQQKPGQAPVLVIYGKNNRPSGILDRFSGSSSGNTASLTITGAQAEDEGDYYCNSRDSSGWVFGGGTKLTVL
B10: EPOR/CD131 binder clonotype 273 (antibody, V domains shown)
VH: QVQLQESGPGLVKPSGTLSLTCAISGGSISSSNWWSWVRQPPGKGLEWIGEIYHSGSTNFNPSLKSRVTISVDKSKNQFSLHLSSVTAADTAVYYCARDVGVDGRGFDYWGQGIVVIVSS
VL: SYELTQPPSVSVSPGQTANITCSGDKLENKYTCWYQQKPGQSPLVVIYQDNKRPSGIPERFSGSNSGNTATLTISGTQAMDEADYYCQAWDSTTAWVFGGGTKLTVL
B11: EPOR/CD131 binder clonotype 274 (antibody, V domains shown)
VH: EVQLVESGGGLVQPGGSLRLSCGVSGFTFSIYWMSWVRQAPGKGLEWVANINLDGSEKYHVDSVKGRFTISRDNAKNSLFLQMTSLRAEDTAVYYCARDILWSGGYLDVWGKGTTVTVSS
VL: SSELTQDPAVSVALGQTVRITCQGDNIRNYYASWYQQKPGQAPLLVISGKNNRPSGIPDRFSGSSSGNTASLTITGAQAEDEAYYYCYSRDSSGSLWIFGGGTKLTVL
B12: EPOR/CD131 binder clonotype 275 (antibody, V domains shown)
VH: EVQLVESGGGLVQPGGSLRLSCAASGFTFSGYWMTWVRQAPGKGLEWVANIKHDGSEKYYVDSVKGRFTISRDNAQNSLYLQMNSLRAEDTAVYYCARKQLWLNWYFDFWGRGILVTVSS
VL: B7 VL with S29R, N51D, A77T, V97L
B13: EPOR/CD131 binder clonotype 276 (antibody, V domains shown)
VH: QVQLVQSGAEVKKPGASVKVSCKASGYTFTTYGISWVRQAPGQGLEWMGWISAFNGNTNYAQNLQGRVTMTTDTSTSTAYMELRSLRSDDTAVYYCARENNWNYGWFDPWGQGTLVTVSS
VL: B7 VL with V97Y, G101T, L105V
B14: EPOR/CD131 binder clonotype 282 (antibody, V domains shown)
VH: EVQLVESGGGLVKPGGSLRLSCAASGFTFSSYSMNWVRQAPGKGLEWVSSISSSSSYIYYADSVKGRFTISRDNAKNSLYLQMNSLRAEDTAVYYCAREGNWGPYYFDYWGQGTLVTVSS
VL: B2 VL with E52D, H55K, S86A, S91C, T94A, S95G, S98T, L99V
B15: clonotype 289 (EPOR/CD131 binders, Table 8) (antibody, V domains shown)
VH: EVHLVESGGGLVQPGGSLRLSCAASGFTFSGYWMSWVRQAPGKGLEWVANIKQDGSDKYYVDSVKGRFTISRDNAINSLFLQLTSLRAEDTAVYYCAREIDWNYGFHFDYWGQGTLITVSS
VL: SYELTQPPSVSVSPGQTARITCSGDALPQKYAFWYQQKSGQAPVLVIYEDSERPSGIPERFSGSTSGTMATLTISGAQVEDEADYYCFSTDSSGNKVFGGGTKLTVL
B16: clonotype 290 (EPOR/CD131 binders, Table 8) (antibody, V domains shown)
VH: QVQLVQSGAEVKKPGASVKVSCKASGYTFTSYDINWVRQATGQGLEWMGWMNPNSGNTGYAQKFQGRVTMTRNTSISTAYMELSSLRSEDTAVYYCARGYYDFWSGPFDYWGQGTLVTVSS
VL: B15 VL with Q29K, F33Y, E52K, T65S, F88Y, K96R
B17: clonotype 292 (EPOR/CD131 binders, Table 8) (antibody, V domains shown)
VH: QVQLQESGPGLVKPSETLSLTCTVSGGSISDYYWNWIRQPPGKGLEWIGYISSRGRTNYNPSLKSRVTLSVDSSKNQFSLKLTSVTAADTAVFYCARGRHFDWLLSYFDYWGQGTLVTVSS
VL: B7 VL with V97Y, G101T, L105V
B18: clonotype 293 (EPOR/CD131 binders, Table 8) (antibody, V domains shown)
VH: EVQLVESGGGLVKPGGSLRLSCAASGFTFSSDNMNWVRQAPGKGLEWVSSIGSSSSYIYYADSVKGRFTISRDNAKNSLYLQMNSLRAEDTAVYYCARDRAIVGATWFDPWGQGTLVIVSS
VL: B7 VL with S29N, V44I, G94Y, V97W
B19: clonotype 294 (EPOR/CD131 binders, Table 8) (antibody, V domains shown)
VH: EVQLVESGGGLVKPGGSLRLSCAASGFTFSSYSMNWVRQAPGKGLEWVSSISSSSSYIYYADSVKGRFTISRDNAKNSLYLQMNSLRAEDTAVYYCARDRYNWNYRYFDLWGRGTLVTVSS
VL: B7 VL with V97L
B20: clonotype 296 (EPOR/CD131 binders, Table 8) (antibody, V domains shown)
VH: QVQLVQSGAEVKKPGASVKVSCKASGYTFTSYGISWVRQAPGQGLEWMGWISAYNGNTNYAQKLQGRVTMTTDTSTSTAYMELRSLRSDDTAVYYCARDGAARPPRYMDVWGKGTTVTVSS
VL: B7 VL with V97L
B21: clonotype 298 (EPOR/CD131 binders, Table 8) (antibody, V domains shown)
VH: QVQLVQSGSEVKKPGASVKVSCKASGYTFTGYYMYWVRQAPGQGLEWMGWINPNSGGTNYAQKFQDRVTMTRDTSISTAYMELSRLRSDDTAIYYCARDLDYYGSGNYDYWGQGTLVTVSS
VL: B7 VL with G94D, V97R
B22: clonotype 300 (EPOR/CD131 binders, Table 8) (antibody, V domains shown)
VH: EVQLVESGGGLVQPGGSLRLSCAASGFTFSSYWMHWVRQAPGKGLVWVSRVNSDGSNTTYADSVKGRFTISRDNAKNTLYLQMNSLRAEDTAVYYCARNRDYHGSGSFDYWGQGTLVTVSS
VL: B7 VL with K50Q, V97W
B23: clonotype 301 (EPOR/CD131 binders, Table 8) (antibody, V domains shown)
VH: QVQLQQSGPGLVKPSQTLSLTCAISGDNVSSNSAAWNWIRQSPSRGLEWLGRTYYRSKWYNDYAVSVKSRITINPDTSKNQFSLHLNSVTPEDTALYYCARDWNFAFDIWGQGTMVTVSS
VL: B7 VL with V97L
B24: clonotype 302 (EPOR/CD131 binders, Table 8) (antibody, V domains shown)
VH: QVQLVQSGAEVKKPGASVKVSCKASGYTFTSYGITWVRQAPGQGLEWMGWISAYNGNTHYAQKLQGRVTMTTDTSTSTAYMDLRSLRSDDTAVYYCARTIFGVVNNWFDPWGQGTLVTVSS
VL: QSVLSQPPSVSEAPRQRVTISCSGSSSNIGYNAVNWYQQLPGKAPKLLISHDDLLPSGVSDRFSGSKSGTSASLAISGLQSDDEADYYCAAWDARLNGWVFGGGTKLTVL

Target: hCD131-Fc (IME021, in house) (human) (UniProt P32927)
Assay: B-cell sort with labelled hEPOR-Fc and hCD131-Fc

Binder	binding
B1	binds
B2	binds
B3	binds
B4	binds
B5	binds
B6	binds
B7	binds
B8	binds
B9	binds
B10	binds
B11	binds
B12	binds
B13	binds
B14	binds

Target: hCD131-Fc (IME021, in house) (human) (UniProt P32927)
Assay: B-cell sorting with labelled hEPOR-Fc and hCD131-Fc, double-positive population

Binder	binding
B15	binds
B16	binds
B17	binds
B18	binds
B19	binds
B20	binds
B21	binds
B22	binds
B23	binds
B24	binds
